# Among all 580,000 compounds or so, about 6,100 (1.1%) were called active. Inconclusive means that the source gave no clear call. Such entries were picked first, then a sample of the others. Calls follow the shape of the dose curve; as a rule, active = well fitted inhibition curve with a large enough effect; inconclusive = small, poorly fitted or top-dose-only effect, or another doubt; inactive = no such curve, though single readings can be large or run the other way. Potencies beside an inconclusive call are fits to weak or partial responses and may not hold up.
# Chains of the proteins cited; added tags and fusions are not shown.
# UniProt P18054, whole entry, looked up: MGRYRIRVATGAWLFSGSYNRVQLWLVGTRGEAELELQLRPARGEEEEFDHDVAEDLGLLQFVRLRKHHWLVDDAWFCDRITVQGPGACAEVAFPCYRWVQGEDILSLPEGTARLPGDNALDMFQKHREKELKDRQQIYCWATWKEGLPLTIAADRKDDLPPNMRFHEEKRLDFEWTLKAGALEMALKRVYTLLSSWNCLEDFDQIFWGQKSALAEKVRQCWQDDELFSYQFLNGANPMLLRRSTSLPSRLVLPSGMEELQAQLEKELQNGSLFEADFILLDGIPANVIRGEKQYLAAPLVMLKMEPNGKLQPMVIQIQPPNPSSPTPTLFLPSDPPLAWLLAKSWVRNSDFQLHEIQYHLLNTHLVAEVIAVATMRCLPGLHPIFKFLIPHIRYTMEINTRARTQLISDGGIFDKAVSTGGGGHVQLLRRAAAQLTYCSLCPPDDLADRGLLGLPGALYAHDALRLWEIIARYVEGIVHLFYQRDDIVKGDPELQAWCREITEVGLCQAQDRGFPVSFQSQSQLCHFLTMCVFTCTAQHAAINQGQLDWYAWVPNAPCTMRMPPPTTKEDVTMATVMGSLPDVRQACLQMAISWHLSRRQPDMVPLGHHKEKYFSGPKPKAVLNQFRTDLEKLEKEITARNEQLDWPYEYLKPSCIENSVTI
# Molecular target: Polyunsaturated fatty acid lipoxygenase ALOX12 (Homo sapiens) (UniProt P18054)
# Test: Primary qHTS assay for inhibitors of human arachidonate 12S-lipoxygenase (ALOX12): Round 2
# Details: purified 12hLO, xylenol orange hydroperoxide absorbance; activity change, negative = inhibition: at 108 µM (top of the series) unless noted
# In short: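 Purified human 12hLO (150 nM final) in 25 mM Hepes, 0.01% Triton X-100, pH 7.0 was preincubated 15 min at room temperature with compound. Then 40 uM arachidonic acid was added, 30 min. Hydroperoxide was read by Fe-XO absorbance ratio 573/405 nm.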
# % is scaled to controls: 0 for no effect and ±100 for the full control effect; potency is read from the fitted curve at half-maximal effect.
Compound,Potency,"activity change, negative = inhibition"
CCOc1ccc(/C=N/NC(=O)c2[nH]c3ccc(C)cc3c2C)cc1,inactive,–
CN(C)S(=O)(=O)c1ccc(C(=O)Nc2ccnn2C2CCCCC2)cc1,inactive,–
COc1ccccc1C(=O)N1CCC2(CC1)COc1ccccc1NC2=O,inactive,–
Cc1nnc(NC(=O)c2ccc(Br)o2)s1,"inconclusive: 39.8 µM [inhibitor, partial curve, poor fit]",–
O=C(CN1CCSCC1)N/N=C/c1ccc(F)c(F)c1,"inconclusive: 0.398 µM [inhibitor, full curve, poor fit]",–
COc1ccc(CNc2ncncc2-c2ccc(C(=O)N(C)C)cc2)c(OC)c1,"inconclusive: 50.1 µM [inhibitor, partial curve, poor fit]",–
COCCN(CC1CCCN(C2Cc3ccccc3C2)C1)C(=O)CCC(N)=O (stereo not given),inactive,–
CC(C)(C)OC(=O)NCCc1onc(-c2cccc([N+](=O)[O-])c2)c1C(=O)O,"inconclusive: 31.6 µM [inhibitor, partial curve, poor fit]",–
CSc1nsc(/C=C/Nc2ccc(F)cc2)c1C#N,"inconclusive: 44.7 µM [inhibitor, partial curve, poor fit]",–
CNC(C)C(=O)NC(C(=O)NC(C)C(=O)NNc1ccccc1)C(C)C (stereo not given),"inconclusive: 31.6 µM [inhibitor, partial curve]",–
COC(=O)Cc1nnn2c1[C@H](C)[C@H](c1cccc(OC)c1OC)OCC2,inactive,–
Cn1cc(S(=O)(=O)N2CCCCCC2)cc1C(=O)NCc1ccccc1Cl,inactive,–
Cc1ccc2c(c1)S/C(=C/c1ccc[n+](CCO)c1)N2C,"inconclusive: 44.7 µM [inhibitor, partial curve, poor fit]",–
O=C(Nc1ccc(Cl)c(C(F)(F)F)c1)[C@@H]1CC=C[C@@H]2CCN(C3CCCCC3)C(=O)[C@@H]21,inactive,–
COc1ccc(CNC(=O)c2[nH]c(C)c(C(C)=O)c2C)cc1,"inconclusive: 100 µM [inhibitor, single point]",–
O=C1c2c(O)cc(O)cc2O[C@H](c2ccc(O)cc2)[C@H]1O,inactive,–
N[C@@H](Cn1ccc(=O)c(O)c1)C(=O)O,"inconclusive: 35.5 µM [inhibitor, single point]",–
Oc1ccc(C[C@H]2CNCCN2CCc2cccc3ccccc23)cc1,inactive,–
Cc1cccc(OCC(O)Cn2nnc(-c3cccnc3)n2)c1 (stereo not given),inactive,–
Cn1c(SCC(=O)c2cc3cc(Cl)ccc3o2)nnc1-c1cccnc1,active: 28.2 µM,–
O=C1Nc2ccccc2CC12CCCN2Cc1ccccc1 (stereo not given),"inconclusive: 70.8 µM [inhibitor, partial curve, poor fit]",–
CCOc1ccc(-n2c(-c3ccccc3)c(C)n3c4c(=O)n(C)c(=O)n(C)c4nc23)cc1,–,inconclusive: -31.5% [inhibitor]
C#CCNC(=O)c1nc(-c2ccccc2OC)c2cnccn12,–,inactive: 1.42% [at 6.33 µM]
Cc1cc2ccccc2n1CCNC(=O)C1CC1,"inconclusive: 70.8 µM [inhibitor, partial curve, poor fit]",–

Compound,Potency,"activity change, negative = inhibition"
OCC1CCCN1C(=S)Nc1ccccc1 (stereo not given),"inconclusive: 31.6 µM [inhibitor, partial curve, poor fit]",–
Cc1cnc(C)c(N2CCN(CC3(O)CCNC3)CC2)n1 (stereo not given),"inconclusive: 3.55 µM [inhibitor, full curve, poor fit]",–
COCCNc1ccc2nnc(-c3ccc(OC)cn3)n2n1,"inconclusive: 3.55 µM [inhibitor, full curve, poor fit]",–
C[C@@H](C(=O)Nc1ccc2ccccc2c1)[C@H]1C[C@]1(C)[C@H](NC(=O)OCc1ccccc1)c1ccccc1,inactive,–
C=CCc1cc(Cl)ccc1OCCn1ccnc1,"inconclusive: 0.562 µM [inhibitor, full curve, poor fit]",–
COc1ccc(C(=O)NCC(=O)N2CCCCCCNC(=O)CC2c2ccccc2)c(OC)n1 (stereo not given),inactive,–
CCOC(=O)c1csc(N)c1-c1ccc([N+](=O)[O-])cc1,"inconclusive: 70.8 µM [inhibitor, partial curve, poor fit]",–
CCOC(=O)C1CCN([C@H]2CS(=O)(=O)C[C@@H]2S(=O)(=O)c2ccc(F)c(C)c2)CC1,inactive,–
CC(C)C[C@@H]1COc2cccc(NCCO)c2S(=O)(=O)N1,"inconclusive: 100 µM [inhibitor, single point]",–
Cc1cccc(-c2nc3cc(NC(=O)/C=C/c4ccco4)ccc3o2)c1,active: 11.2 µM,–
CCc1ccc(Nc2nc(-c3ccccc3F)no2)cc1,"inconclusive: 20 µM [inhibitor, full curve, poor fit]",–
Cc1c(Cl)cnc(NC(=O)COC(=O)C2CC2)c1Cl,"inconclusive: 44.7 µM [inhibitor, partial curve, poor fit]",–
NC1=NC(c2ccccc2)C=C(c2ccccc2)O1 (stereo not given),inactive,–
CCC(C)NC(=O)C1CCN(S(=O)(=O)c2ccc3nc4c(c(C(=O)O)c3c2)CCCCC4)CC1 (stereo not given),"inconclusive: 50.1 µM [inhibitor, partial curve, poor fit]",–
CCOc1ccc(CNCCc2ccc(S(N)(=O)=O)cc2)cc1,inactive,–
O=C(c1ccccc1)c1nc[nH]c1C(=O)Nc1ccccn1,"inconclusive: 0.794 µM [inhibitor, partial curve, poor fit]",–
O=[N+]([O-])c1ccc(-c2nc(Nc3ccccc3)c3ccccc3n2)cc1,inactive,–
CC(C)c1nnc(NC(=O)CC(C)c2ccccc2)s1 (stereo not given),inactive,–
COCCCNC(=O)C[C@@H]1C[C@@]2(C(=O)OC)CC(C)(C)CC=C2N(Cc2cccc3ccccc23)C1=O,"inconclusive: 50.1 µM [inhibitor, partial curve, poor fit]",–
O=C(NCCN1CCCCC1)c1ccc(-c2ccc(N3CCSCC3)nc2)cc1,"inconclusive: 2.24 µM [inhibitor, full curve]",–
COc1cccc(Oc2coc3cc(OS(C)(=O)=O)ccc3c2=O)c1,"inconclusive: 28.2 µM [inhibitor, single point]",–
CC(=O)Oc1c(-c2ccc(Br)o2)oc2ccccc2c1=O,active: 35.5 µM,–
Cc1ccc(-c2nc(N)sc2CC(=O)OCC(=O)Nc2cccc3ccccc23)cc1,"inconclusive: 35.5 µM [inhibitor, partial curve, poor fit]",–
COc1ccc(Nc2nc(Cl)nc(NCc3ccco3)n2)cc1,"inconclusive: 17.8 µM [inhibitor, partial curve, poor fit]",–

# Part of the list above, reformatted:
Compound | Potency | activity change, negative = inhibition
Cc1cc2ccccc2n1CCNC(=O)C1CC1 | inconclusive: 70.8 µM [inhibitor, partial curve, poor fit] | –
OCC1CCCN1C(=S)Nc1ccccc1 (stereo not given) | inconclusive: 31.6 µM [inhibitor, partial curve, poor fit] | –

# Continued:

Compound,Potency,"activity change, negative = inhibition"
O=C(c1ccco1)N1N=C(c2cccs2)CC1c1ccc(F)cc1 (stereo not given),"inconclusive: 112 µM [inhibitor, partial curve, poor fit]",–
COc1ccc(Br)cc1/C=C/C(=O)NCC(=O)O,inactive,–
CN1CCCN(S(=O)(=O)c2ccc(Cl)cc2)c2ccccc21,inactive,–
CC(C)Cn1c(N)c(C(=O)COC(=O)c2c(F)cccc2F)c(=O)n(C)c1=O,inactive,–
OC(CNCCC1C=Nc2ccccc21)Cn1c2ccc(Cl)cc2c2cc(Cl)ccc21 (stereo not given),"inconclusive: 44.7 µM [inhibitor, partial curve, poor fit]",–
Oc1ccc(Br)cc1/C=N/n1c(COc2ccccc2)n[nH]c1=S,active: 8.91 µM,–
O=S(=O)(c1ccccc1F)N1CCN(Cc2nc3ccccc3[nH]2)CC1,"inconclusive: 0.355 µM [inhibitor, full curve, poor fit]",–
O=C(/C=C/c1ccccc1Cl)c1ccccc(=O)c1O,"inconclusive: 11.2 µM [inhibitor, full curve, poor fit]",–
CCCCCCN1C[C@@H](n2cc(-c3ccc(F)cc3)nn2)[C@H](O)C[C@@H]1c1ccc(OC)cc1,"inconclusive: 112 µM [inhibitor, single point]",–
COc1cccc(-n2cc(C(=O)NCc3ccccc3OC)c3ccccc3c2=O)c1,inactive,–
CCN(CC)CCN1C(=O)C(O)=C(C(=O)c2sc(C)nc2C)C1c1ccc(C(=O)OC)cc1 (stereo not given),"inconclusive: 35.5 µM [inhibitor, partial curve, poor fit]",–
COc1ccccc1Cc1c(-c2cccc(Cl)c2)nc2ccc(C)cn12,"inconclusive: 50.1 µM [inhibitor, partial curve, poor fit]",–
Fc1ccc(-c2n[nH]c(=S)n2CC2CCCO2)cc1 (stereo not given),"inconclusive: 44.7 µM [inhibitor, partial curve, poor fit]",–
COc1ccc(C(c2c(C)[nH][nH]c2=O)c2c(C)[nH][nH]c2=O)cc1Br,"inconclusive: 100 µM [inhibitor, single point]",–
COc1ccc(C2NC(C(=O)O)CS2)cc1COCC(F)(F)F (stereo not given),"inconclusive: 0.501 µM [inhibitor, full curve, poor fit]",–
COc1ccc(Nc2nc(-c3ccc(F)cc3F)cs2)cc1,active: 15.8 µM,–
O=C(Nc1cccc2ncccc12)c1cnc2ccccc2n1,inactive,–
O=C(NCc1cccc(Br)c1)c1noc(-c2ccc(F)cc2)n1,inactive,–
Nn1cnnc1N/N=C/c1ccc(Cl)cc1Cl,"inconclusive: 31.6 µM [inhibitor, single point]",–
O=C(c1ccccc1)c1ccc2cc(O)ccc2c1,"inconclusive: 112 µM [inhibitor, single point]",–
COc1cccc(CNc2ncnc3c2CN(C2CCCNCC2)C(=O)CN3C)c1 (stereo not given),"inconclusive: 3.55 µM [inhibitor, full curve, poor fit]",–
O=C(CN1CCN(Cc2ccccc2)CC1)NC(c1ccccc1)c1ccccc1,"inconclusive: 0.447 µM [inhibitor, full curve, poor fit]",–
